Here are results for 20 compounds from PubChem BioAssay AID330 (DTP/NCI, 2004).

In the experiment the test system is P388 leukemia ip, CD2F1 mice, survival T/C. The experiment can be described thus: NCI In Vivo Anticancer Drug Screen. Data for tumor model P388 Leukemia (intraperitoneal) in CD2F1 (CDF1) mice. The conditions noted are these: T/C endpoint: median survival time, higher T/C = longer survival.
Where [1] appears, read: dose: 100.0 mg/kg/injection, schedule: Q01DX005 (ip), vehicle: saline.
Where [2] appears, read: dose: 200.0 mg/kg/injection, schedule: Q01DX005 (ip), vehicle: saline.
The mark [3] stands for this setting: dose: 25.0 mg/kg/injection, schedule: Q01DX009 (ip), vehicle: saline with Tween-80.
The mark [4] stands for this setting: dose: 50.0 mg/kg/injection, schedule: Q01DX009 (ip), vehicle: saline with Tween-80.
Setting [5] is: dose: 50.0 mg/kg/injection, schedule: Q01DX009 (ip), vehicle: saline.
The mark [6] stands for this setting: dose: 100.0 mg/kg/injection, schedule: Q01DX009 (ip), vehicle: saline with Tween-80.
[7] abbreviates: dose: 100.0 mg/kg/injection, schedule: Q01DX009 (ip), vehicle: saline.
Setting [8] is: dose: 200.0 mg/kg/injection, schedule: Q01DX009 (ip), vehicle: saline with Tween-80.
[9] abbreviates: dose: 200.0 mg/kg/injection, schedule: Q01DX009 (ip), vehicle: saline.
Setting [10] is: dose: 6.25 mg/kg/injection, schedule: Q01DX005 (ip), vehicle: Klucel (hydroxypropylcellulose) (HPC).
The mark [11] stands for this setting: dose: 240.0 mg/kg/injection, schedule: Q01DX005 (ip), vehicle: saline.
Setting [12] is: dose: 50.0 mg/kg/injection, schedule: Q04DX003 (ip), vehicle: Klucel (hydroxypropylcellulose) (HPC).
Setting [13] is: dose: 100.0 mg/kg/injection, schedule: Q04DX003 (ip), vehicle: Klucel (hydroxypropylcellulose) (HPC).
[14] abbreviates: dose: 200.0 mg/kg/injection, schedule: Q04DX003 (ip), vehicle: Klucel (hydroxypropylcellulose) (HPC).
The mark [15] stands for this setting: dose: 400.0 mg/kg/injection, schedule: Q04DX003 (ip), vehicle: Klucel (hydroxypropylcellulose) (HPC).
[16] abbreviates: dose: 25.0 mg/kg/injection, schedule: Q01DX009 (ip), vehicle: distilled water + Tween-80.
The mark [17] stands for this setting: dose: 50.0 mg/kg/injection, schedule: Q01DX009 (ip), vehicle: distilled water + Tween-80.
The mark [18] stands for this setting: dose: 100.0 mg/kg/injection, schedule: Q01DX009 (ip), vehicle: distilled water + Tween-80.

Structures are written as SMILES. The list is a part of this screen's results and no random one: it gathers tests that were run many times, whatever their T/C, doses with no T/C, and many T/C values between a quarter and a half above the control. Further doses and runs are listed elsewhere. T/C: endpoint of the treated group in % of that of the vehicle group. Some doses have a count of surviving animals in place of a T/C: the source files T/C as zero there, which appears to mark a toxic dose or a test without result, not a measured value. Some survivor counts are full or nearly so, which does not show that the dose was tolerated: the source hardly ever lists a survival T/C far under the control, and the zero likely stands for such cases as well. Counts of survivors are from the toxicity check (mostly the fifth day) where no day follows; animals may have died later. Schedules are NCI's codes, read here as Q, the interval in days (D) or hours (H), X, the number of doses. Some doses were run more than once; the results are listed from low to high. Some molecules as drawn cover several salts, stereoisomers or complexes of the source; a dose is that of the sample tested. Marks such as (2×) give the number of equal values in this list. Where survival is the endpoint, this PubChem deposit counts one and a half times the control or more as active, and values a quarter to a half above the control carry no call in these data; other NCI protocols may use other cut-offs. Some T/C values carry the count of animals alive at the toxicity check (mostly the fifth day); where none is given, no animal had died by that day.

Turning to `O=[N+]([O-])c1ccc(-[n+]2ccc3ccccc3c2)c([N+](=O)[O-])c1`, the survivor count by setting is: under setting [1], 0 of 5; under setting [2], 0 of 5.
Take `CCCCC(CC)CCC(C)O` (stereo unspecified): the survivor count (dose: 200.0 mg/kg/injection, schedule: Q04DX003 (ip), vehicle: saline with Tween-80) is 6 of 6.
For the compound `CCOC(=O)N1Cc2cc3ccccc3nc2C1CC(=O)O` (stereo unspecified), the survivor count (dose: 100.0 mg/kg/injection, schedule: Q01DX009 (ip), vehicle: Klucel (hydroxypropylcellulose) (HPC)) was 5 of 6.
As to `C[N+]1(CSC(=O)c2ccccc2)CCCCC1`, the T/C by setting is: under setting [3], 127 and 131 % of control; under setting [4], 127 % of control. The survivor count runs as follows: (dose: 25.0 mg/kg/injection, schedule: Q01DX009 (ip), vehicle: saline) 3 of 6; under setting [5], 0 of 6 and 3 of 6; under setting [6], 3 of 6; under setting [7], 0 of 6; under setting [8], 0 of 6; under setting [9], 0 of 6.
`[Cl][Sn]([Cl])([c]1ccccc1)[c]1ccccc1.c1ccc(-c2nnc(-c3ccccn3)nc2-c2ccccc2)cc1`: the T/C reads like this: (dose: 1.56 mg/kg/injection, schedule: Q01DX005 (ip), vehicle: Klucel (hydroxypropylcellulose) (HPC)) 125 % of control [5 of 6 alive]; (dose: 3.12 mg/kg/injection, schedule: Q01DX005 (ip), vehicle: Klucel (hydroxypropylcellulose) (HPC)) 127 % of control; under setting [10], 126 % of control. For the same compound, the survivor count was 2 of 6 and 3 of 6 under setting [10]; 1 of 6 (dose: 12.5 mg/kg/injection, schedule: Q01DX005 (ip), vehicle: Klucel (hydroxypropylcellulose) (HPC)); 0 of 6 (dose: 25.0 mg/kg/injection, schedule: Q01DX005 (ip), vehicle: Klucel (hydroxypropylcellulose) (HPC)); 0 of 6 (dose: 50.0 mg/kg/injection, schedule: Q01DX005 (ip), vehicle: Klucel (hydroxypropylcellulose) (HPC)).
On to `CC(=O)C1SCC[S+]1C` (stereo unspecified), for which the survivor count is 0 of 6 (dose: 120.0 mg/kg/injection, schedule: Q01DX005 (ip), vehicle: saline) and 0 of 6 under setting [11].
For `COc1cc(/C=C2\SC(=S)N(C3CC3)C2=O)ccc1O`, the survivor count by setting is: under setting [5], 6 of 6; under setting [7], 6 of 6.
With `O=C1c2cccc3c([N+](=O)[O-])ccc(c23)C(=O)N1NCCO`, the survivor count (dose: 200.0 mg/kg/injection, schedule: Q01DX005 (ip), vehicle: saline with Tween-80) is listed as 0 of 6.
With `CCCN1CCc2cc3c(cc2C1)OCO3`, under setting [11], the survivor count is 0 of 6.
`C[N+]12CCCCC1CC2` (stereo unspecified): the survivor count was 0 of 6 under setting [5], 0 of 6 under setting [7] and 0 of 6 under setting [9].
Turning to `OCCN(CCO)CC(O)c1cc(-c2ccccc2)nc2ccccc12` (stereo unspecified), the survivor count (dose: 200.0 mg/kg/injection, schedule: Q01DX005 (ip), vehicle: Klucel (hydroxypropylcellulose) (HPC)) is 0 of 5.
Turning to `COc1cc2c(cc1OC(C)=O)C(=O)C(Br)(Br)CCC2`, under setting [6], the T/C was 127 % of control.
For `C[n+]1ccc2c([N+](=O)[O-])cccc2c1`, the survivor count reads like this: (dose: 25.0 mg/kg/injection, schedule: Q01DX005 (ip), vehicle: saline) 0 of 5; (dose: 50.0 mg/kg/injection, schedule: Q01DX005 (ip), vehicle: saline) 0 of 5; under setting [1], 0 of 5; under setting [2], 0 of 5.
Consider `CS(=O)(=O)OCc1ccc(COS(C)(=O)=O)cc1`, for which the T/C (dose: 25.0 mg/kg/injection, schedule: Q04DX003 (ip), vehicle: Klucel (hydroxypropylcellulose) (HPC)) is 131 % of control; the T/C under setting [12] is on record as 104, 116, 119 % of control; the T/C under setting [13] was 107, 109, 114 % of control; the T/C under setting [14] is 97 and 121 % of control; the T/C under setting [15] was 96 and 125 % of control. The survivor count under setting [12] is reported as 6 of 6; the survivor count under setting [13] is listed as 2 of 6, 3 of 6, 6 of 6; the survivor count under setting [14] is on record as 0 of 6, 1 of 6, 4 of 6; the survivor count under setting [15] is 0 of 6 (2×); the survivor count (dose: 600.0 mg/kg/injection, schedule: Q04DX003 (ip), vehicle: Klucel (hydroxypropylcellulose) (HPC)) is listed as 0 of 6.
As for `C1CNC(CCNCCSCCNCCC2=NCCN2)=N1`, the survivor count runs as follows: under setting [7], 0 of 6; under setting [9], 0 of 6.
On to `CC(C)=CC(=O)OC1C2C(C)=CC(=O)C(O)C2(C)C2C3(O)OCC24C(CC(=O)OC14)C(C)C3O` (stereo unspecified), for which the T/C by setting is: (dose: 0.25 mg/kg/injection, schedule: Q01DX009 (ip), vehicle: distilled water + Tween-80) 145 % of control; (dose: 0.5 mg/kg/injection, schedule: Q01DX009 (ip), vehicle: distilled water + Tween-80) 135 % of control; (dose: 1.0 mg/kg/injection, schedule: Q01DX009 (ip), vehicle: distilled water + Tween-80) 148 % of control [5 of 6 alive]; (dose: 2.0 mg/kg/injection, schedule: Q01DX009 (ip), vehicle: distilled water + Tween-80) 145 % of control [4 of 6 alive]. Further, the survivor count was 1 of 6 and 4 of 6 (dose: 4.0 mg/kg/injection, schedule: Q01DX009 (ip), vehicle: distilled water + Tween-80); 0 of 6 (dose: 8.0 mg/kg/injection, schedule: Q01DX009 (ip), vehicle: distilled water + Tween-80).
In the case of `O=C(Nc1cccc2c(OC(=O)C(Cl)Cl)c(N=Nc3ccc(S(=O)(=O)Nc4nccs4)cc3)cc(N=Nc3ccc(S(=O)(=O)Nc4nccs4)cc3)c12)C(Cl)Cl` (tested in a mixture with another compound), the T/C runs as follows: (dose: 3.12 mg/kg/injection, schedule: Q01DX009 (ip), vehicle: saline with Tween-80) 126 % of control; (dose: 6.25 mg/kg/injection, schedule: Q01DX009 (ip), vehicle: saline with Tween-80) 133 % of control; (dose: 12.5 mg/kg/injection, schedule: Q01DX009 (ip), vehicle: saline with Tween-80) 128 and 134 % of control; under setting [3], 136 % of control. Besides, the survivor count is 6 of 6 under setting [3]; 4 of 6, 5 of 6, 6 of 6 (2×) under setting [4]; 1 of 6, 3 of 6, 5 of 6 under setting [6]; 0 of 6 (2×), 4 of 6, 6 of 6 under setting [8]; 1 of 6 and 2 of 6 (dose: 400.0 mg/kg/injection, schedule: Q01DX009 (ip), vehicle: saline with Tween-80).
`CC(=O)NCc1cc(C)c(CC#N)cc1CC#N`: the survivor count by setting is: under setting [16], 6 of 6; under setting [18], 3 of 6; (dose: 200.0 mg/kg/injection, schedule: Q01DX009 (ip), vehicle: distilled water + Tween-80) 0 of 6. The T/C under setting [17] was 126 % of control.
With `Oc1ccc(O)c2nc3ccccc3nc12`, the survivor count reads like this: (dose: 12.5 mg/kg/injection, schedule: Q01DX009 (ip), vehicle: distilled water + Tween-80) 5 of 6; under setting [16], 0 of 6; under setting [17], 0 of 6; under setting [18], 0 of 6.
`CCC(=O)[O-].CCC(=O)[O-].CCC(=O)[O-].CCC(=O)[O-].O=S(=O)(O)O.[Re].[Re]`: the survivor count by setting is: (dose: 300.0 mg/kg/injection, schedule: Q01DX009 (ip), vehicle: suspension in saline) 3 of 6; (dose: 500.0 mg/kg/injection, schedule: Q01DX009 (ip), vehicle: suspension in saline) 1 of 6.
